# The supplement of paper PMC10849652
# Amino acid sequences for entries named in this document (tags omitted). A change or cut given only in a name is not applied to a line headed by its entry.
# UniProt Q6NW29: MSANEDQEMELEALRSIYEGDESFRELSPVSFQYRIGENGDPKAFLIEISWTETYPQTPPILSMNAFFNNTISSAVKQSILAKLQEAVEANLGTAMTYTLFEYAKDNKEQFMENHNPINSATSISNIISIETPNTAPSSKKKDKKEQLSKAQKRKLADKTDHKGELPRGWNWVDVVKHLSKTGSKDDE
# UniProt Q96S38: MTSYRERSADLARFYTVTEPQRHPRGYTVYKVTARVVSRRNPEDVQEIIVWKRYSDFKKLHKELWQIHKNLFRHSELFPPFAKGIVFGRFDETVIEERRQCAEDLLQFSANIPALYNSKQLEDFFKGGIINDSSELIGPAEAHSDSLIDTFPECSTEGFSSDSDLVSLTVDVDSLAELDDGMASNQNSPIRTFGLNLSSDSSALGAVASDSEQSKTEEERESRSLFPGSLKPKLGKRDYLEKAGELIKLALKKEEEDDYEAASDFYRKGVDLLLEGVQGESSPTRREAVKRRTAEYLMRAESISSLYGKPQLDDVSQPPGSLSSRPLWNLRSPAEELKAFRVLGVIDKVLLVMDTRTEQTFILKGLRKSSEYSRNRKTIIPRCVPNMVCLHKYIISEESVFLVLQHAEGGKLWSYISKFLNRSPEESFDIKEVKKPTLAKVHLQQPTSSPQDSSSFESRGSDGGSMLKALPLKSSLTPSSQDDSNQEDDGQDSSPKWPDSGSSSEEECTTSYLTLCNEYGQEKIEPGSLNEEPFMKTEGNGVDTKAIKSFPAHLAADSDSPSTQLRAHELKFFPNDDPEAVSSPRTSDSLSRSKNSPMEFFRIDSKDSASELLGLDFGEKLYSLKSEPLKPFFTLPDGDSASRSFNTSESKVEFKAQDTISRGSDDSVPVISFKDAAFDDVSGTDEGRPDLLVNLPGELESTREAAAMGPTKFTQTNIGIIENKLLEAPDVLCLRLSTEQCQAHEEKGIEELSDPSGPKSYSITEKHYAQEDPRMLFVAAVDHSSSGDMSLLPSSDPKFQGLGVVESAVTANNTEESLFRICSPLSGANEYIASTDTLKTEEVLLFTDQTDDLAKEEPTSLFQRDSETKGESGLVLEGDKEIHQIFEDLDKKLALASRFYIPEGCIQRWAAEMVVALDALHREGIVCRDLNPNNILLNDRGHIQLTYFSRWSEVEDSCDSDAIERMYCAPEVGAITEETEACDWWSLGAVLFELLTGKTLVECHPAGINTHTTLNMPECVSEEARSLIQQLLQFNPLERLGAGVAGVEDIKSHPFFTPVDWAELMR
# UniProt Q8IZ73: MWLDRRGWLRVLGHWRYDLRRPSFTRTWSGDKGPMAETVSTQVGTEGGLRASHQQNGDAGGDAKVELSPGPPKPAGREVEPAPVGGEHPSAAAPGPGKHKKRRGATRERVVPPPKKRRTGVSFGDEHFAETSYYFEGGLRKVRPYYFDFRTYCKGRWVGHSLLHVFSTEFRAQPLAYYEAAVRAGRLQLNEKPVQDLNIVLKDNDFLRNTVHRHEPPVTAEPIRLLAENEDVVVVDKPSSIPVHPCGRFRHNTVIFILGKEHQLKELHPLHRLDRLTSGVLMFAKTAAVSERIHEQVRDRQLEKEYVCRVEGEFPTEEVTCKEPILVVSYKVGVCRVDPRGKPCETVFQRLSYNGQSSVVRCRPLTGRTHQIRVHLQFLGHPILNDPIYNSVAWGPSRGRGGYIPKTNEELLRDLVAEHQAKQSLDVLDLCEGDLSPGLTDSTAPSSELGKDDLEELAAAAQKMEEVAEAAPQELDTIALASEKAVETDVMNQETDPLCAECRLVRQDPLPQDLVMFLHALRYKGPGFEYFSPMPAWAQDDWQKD
# UniProt Q9P2E9: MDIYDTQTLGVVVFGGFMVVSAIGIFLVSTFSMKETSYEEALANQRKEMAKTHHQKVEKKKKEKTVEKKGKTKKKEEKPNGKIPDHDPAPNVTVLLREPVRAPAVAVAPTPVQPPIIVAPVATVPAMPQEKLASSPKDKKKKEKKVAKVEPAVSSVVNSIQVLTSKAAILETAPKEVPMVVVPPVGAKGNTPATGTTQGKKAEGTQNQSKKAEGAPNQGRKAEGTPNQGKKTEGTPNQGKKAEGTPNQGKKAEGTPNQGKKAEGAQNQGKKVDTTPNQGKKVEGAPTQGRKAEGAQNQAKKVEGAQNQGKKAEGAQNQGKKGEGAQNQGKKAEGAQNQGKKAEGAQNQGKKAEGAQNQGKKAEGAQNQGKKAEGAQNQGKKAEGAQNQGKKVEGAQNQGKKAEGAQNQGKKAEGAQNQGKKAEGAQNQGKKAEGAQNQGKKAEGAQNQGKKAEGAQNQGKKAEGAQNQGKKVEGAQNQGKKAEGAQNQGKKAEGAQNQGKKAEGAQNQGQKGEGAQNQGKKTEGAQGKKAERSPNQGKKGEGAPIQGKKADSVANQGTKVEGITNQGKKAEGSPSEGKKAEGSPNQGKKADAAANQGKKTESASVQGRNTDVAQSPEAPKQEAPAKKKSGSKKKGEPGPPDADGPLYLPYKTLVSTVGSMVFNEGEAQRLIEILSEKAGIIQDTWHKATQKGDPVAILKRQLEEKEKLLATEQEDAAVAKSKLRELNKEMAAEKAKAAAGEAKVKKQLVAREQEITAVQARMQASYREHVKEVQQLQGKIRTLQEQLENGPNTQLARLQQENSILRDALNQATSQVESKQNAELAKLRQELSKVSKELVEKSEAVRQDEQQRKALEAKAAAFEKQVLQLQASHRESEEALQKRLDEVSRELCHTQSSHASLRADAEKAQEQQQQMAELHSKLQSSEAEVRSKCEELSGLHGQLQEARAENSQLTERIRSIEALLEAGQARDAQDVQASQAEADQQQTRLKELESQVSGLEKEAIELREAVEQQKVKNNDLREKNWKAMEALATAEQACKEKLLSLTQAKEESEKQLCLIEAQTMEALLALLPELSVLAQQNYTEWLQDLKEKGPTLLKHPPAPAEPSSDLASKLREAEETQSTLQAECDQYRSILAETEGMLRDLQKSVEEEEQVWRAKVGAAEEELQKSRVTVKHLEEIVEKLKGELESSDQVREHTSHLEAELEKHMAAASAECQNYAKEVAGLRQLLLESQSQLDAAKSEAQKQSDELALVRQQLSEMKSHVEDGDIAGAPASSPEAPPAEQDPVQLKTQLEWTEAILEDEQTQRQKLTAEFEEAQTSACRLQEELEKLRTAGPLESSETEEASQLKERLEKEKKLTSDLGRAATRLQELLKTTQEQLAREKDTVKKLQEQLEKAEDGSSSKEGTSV
# UniProt P10301: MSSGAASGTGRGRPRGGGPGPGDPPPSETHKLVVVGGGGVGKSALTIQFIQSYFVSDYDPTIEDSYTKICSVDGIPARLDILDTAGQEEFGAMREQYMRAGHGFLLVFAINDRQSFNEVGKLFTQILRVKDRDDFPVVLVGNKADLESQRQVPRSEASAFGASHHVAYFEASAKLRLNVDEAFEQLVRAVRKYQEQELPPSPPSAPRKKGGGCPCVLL
# UniProt Q9Y265, whole entry, looked up: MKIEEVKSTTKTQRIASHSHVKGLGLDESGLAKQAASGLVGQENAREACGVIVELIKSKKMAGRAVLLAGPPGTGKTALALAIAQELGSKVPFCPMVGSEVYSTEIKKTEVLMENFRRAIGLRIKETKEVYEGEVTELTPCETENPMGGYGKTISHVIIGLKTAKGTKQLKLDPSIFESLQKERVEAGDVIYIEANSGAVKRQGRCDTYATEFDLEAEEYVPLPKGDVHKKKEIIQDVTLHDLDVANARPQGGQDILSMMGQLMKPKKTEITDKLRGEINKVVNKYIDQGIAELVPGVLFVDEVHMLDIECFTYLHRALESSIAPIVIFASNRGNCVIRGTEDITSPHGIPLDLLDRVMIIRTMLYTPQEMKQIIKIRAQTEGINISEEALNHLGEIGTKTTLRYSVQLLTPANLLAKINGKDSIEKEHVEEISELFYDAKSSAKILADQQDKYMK
# UniProt Q15418, whole entry, looked up: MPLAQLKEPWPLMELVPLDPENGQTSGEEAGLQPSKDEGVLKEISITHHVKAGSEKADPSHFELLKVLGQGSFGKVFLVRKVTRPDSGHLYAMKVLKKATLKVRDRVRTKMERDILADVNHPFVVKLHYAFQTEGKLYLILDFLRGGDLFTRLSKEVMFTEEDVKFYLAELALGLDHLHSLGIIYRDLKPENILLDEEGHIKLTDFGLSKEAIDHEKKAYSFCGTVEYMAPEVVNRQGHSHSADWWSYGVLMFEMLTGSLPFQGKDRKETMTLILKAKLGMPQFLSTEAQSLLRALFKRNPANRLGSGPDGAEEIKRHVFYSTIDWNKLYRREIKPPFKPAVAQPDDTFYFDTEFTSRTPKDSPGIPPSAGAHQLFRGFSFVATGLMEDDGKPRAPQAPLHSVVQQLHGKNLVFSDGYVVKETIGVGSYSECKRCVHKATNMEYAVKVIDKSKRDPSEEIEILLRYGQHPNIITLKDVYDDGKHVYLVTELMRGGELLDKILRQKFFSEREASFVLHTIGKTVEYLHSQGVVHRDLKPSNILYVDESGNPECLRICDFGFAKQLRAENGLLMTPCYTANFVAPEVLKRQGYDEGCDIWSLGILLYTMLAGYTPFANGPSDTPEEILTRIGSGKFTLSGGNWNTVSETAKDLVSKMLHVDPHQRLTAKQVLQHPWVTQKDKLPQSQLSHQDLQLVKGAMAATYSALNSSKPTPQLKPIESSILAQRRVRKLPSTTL
# UniProt Q9NQC3: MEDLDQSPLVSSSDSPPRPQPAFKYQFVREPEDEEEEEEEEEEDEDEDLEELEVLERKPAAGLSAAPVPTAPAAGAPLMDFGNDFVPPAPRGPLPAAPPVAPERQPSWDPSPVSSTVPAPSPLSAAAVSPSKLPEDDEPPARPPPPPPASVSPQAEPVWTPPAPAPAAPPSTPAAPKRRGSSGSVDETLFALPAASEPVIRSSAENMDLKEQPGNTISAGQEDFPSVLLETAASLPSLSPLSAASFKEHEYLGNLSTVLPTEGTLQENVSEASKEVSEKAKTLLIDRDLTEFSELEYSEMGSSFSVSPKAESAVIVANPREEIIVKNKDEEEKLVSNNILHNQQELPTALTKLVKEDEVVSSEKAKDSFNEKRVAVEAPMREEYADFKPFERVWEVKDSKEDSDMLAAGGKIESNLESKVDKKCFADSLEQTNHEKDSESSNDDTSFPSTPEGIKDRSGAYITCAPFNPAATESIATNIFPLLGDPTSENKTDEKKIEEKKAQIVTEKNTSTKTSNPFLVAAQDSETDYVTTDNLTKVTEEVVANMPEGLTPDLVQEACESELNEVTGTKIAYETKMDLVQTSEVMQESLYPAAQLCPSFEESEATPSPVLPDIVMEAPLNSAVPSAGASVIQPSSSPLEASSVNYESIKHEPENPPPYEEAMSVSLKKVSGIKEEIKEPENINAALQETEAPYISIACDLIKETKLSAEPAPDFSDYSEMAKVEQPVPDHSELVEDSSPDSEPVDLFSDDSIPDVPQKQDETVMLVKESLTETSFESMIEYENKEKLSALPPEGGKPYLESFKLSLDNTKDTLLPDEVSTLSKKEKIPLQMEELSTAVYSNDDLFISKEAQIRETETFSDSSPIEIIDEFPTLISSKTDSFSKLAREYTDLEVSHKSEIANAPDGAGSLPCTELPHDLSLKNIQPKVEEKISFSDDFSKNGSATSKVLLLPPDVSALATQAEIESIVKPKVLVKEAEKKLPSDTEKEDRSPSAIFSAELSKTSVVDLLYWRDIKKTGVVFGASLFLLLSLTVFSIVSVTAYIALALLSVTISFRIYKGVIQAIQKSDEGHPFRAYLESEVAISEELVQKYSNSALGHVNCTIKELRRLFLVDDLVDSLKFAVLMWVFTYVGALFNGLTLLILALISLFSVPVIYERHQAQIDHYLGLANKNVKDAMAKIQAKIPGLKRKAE
# This is one part of the list.
# Legend:
# Assay in all cases: log2 fold change, soluble protein after heating vs DMSO (PISA); higher = thermal stabilisation; K562 lysate, 10 uM; active = over 0.2 and 3.5 SD of the protein, either way, in both replicates (recomputed)
# vemurafenib = compound: CCCS(=O)(=O)Nc1ccc(F)c(C(=O)c2c[nH]c3ncc(-c4ccc(Cl)cc4)cc23)c1F [vemurafenib]
# Outline: (§1)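 K562 pellets were dounce-homogenised in PBS pH 7.4 containing 1 mM MgCl2, and the crude extract, at 1 mg/mL protein, was exposed to 10 μM compound for 30 min. Aliquots were heated for 3 min across 48°C-58°C, pooled, brought to 0.5% NP-40 at 4°C and spun at 21,000xg for 90 min, with the supernatant taken as soluble protein. TMTpro 16plex LC-MS/MS with equalised channel sums quantified that protein. Values are log-two fold changes in thermal stability relative to solvent controls, taken from duplicates.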
# [1] = compound: CCCS(=O)(=O)Nc1ccc(F)c(C(=O)c2c[nH]c3ncc(Cl)cc23)c1F
# Outline: as §1
# barasertib = compound: CCN(CCCOc1ccc2c(Nc3cc(CC(=O)Nc4cccc(F)c4)[nH]n3)ncnc2c1)CCOP(=O)(O)O [barasertib]
# Outline: as §1
# [2] = compound: CC[C@@H]1C(=O)N(C)c2cnc(Nc3ccc(C(=O)NC4CCN(C)CC4)cc3OC)nc2N1C1CCCC1
# Outline: as §1
# volasertib = compound: CC[C@@H]1C(=O)N(C)c2cnc(Nc3ccc(C(=O)N[C@H]4CC[C@H](N5CCN(CC6CC6)CC5)CC4)cc3OC)nc2N1C(C)C [volasertib]
# Outline: as §1
# [3] = compound: CCn1c(C(=O)N(C2CC2)C2CC2)cc2c3c(ncn3C)c(Nc3cc(C)n(C)n3)nc21
# Outline: as §1
# [4] = compound: CCn1cc(-c2ccnc3[nH]c(-c4cccc(CN(C)C)c4)cc23)c(-c2ccc(NC(=O)N(C)C)cc2)n1
# Outline: as §1
# [5] = compound: CN1CCC(CNc2ccc3ncc(-c4cccc(OC(F)(F)F)c4)n3n2)CC1
# Outline: as §1
# saracatinib = compound: CN1CCN(CCOc2cc(OC3CCOCC3)c3c(Nc4c(Cl)ccc5c4OCO5)ncnc3c2)CC1 [saracatinib]
# Outline: as §1
# sotrastaurin = compound: CN1CCN(c2nc(C3=C(c4c[nH]c5ccccc45)C(=O)NC3=O)c3ccccc3n2)CC1 [sotrastaurin]
# Outline: as §1
# alvocidib = compound: CN1CC[C@H](c2c(O)cc(O)c3c(=O)cc(-c4ccccc4Cl)oc23)[C@H](O)C1 [alvocidib]
# Outline: as §1
# Tubastatin A = compound: CN1CCc2c(c3ccccc3n2Cc2ccc(C(=O)NO)cc2)C1 [Tubastatin A]
# Outline: as §1
# [6] = compound: CNC(=O)C1=CC=CC=C1NC2=NC(=NC=C2Cl)NC3=C(C=C(C=C3)N4CCOCC4)OC
# Outline: as §1
# defactinib = compound: CNC(=O)c1ccc(Nc2ncc(C(F)(F)F)c(NCc3nccnc3N(C)S(C)(=O)=O)n2)cc1 [defactinib]
# Outline: as §1
# [7] = compound: CNc1nc(-c2ccc3c(N)n[nH]c3c2)cc(N2C[C@@H](C(=O)NC3CCCCC3)CC[C@H]2C)n1
# Outline: as §1
# encorafenib = compound: COC(=O)N[C@@H](C)CNc1nccc(-c2cn(C(C)C)nc2-c2cc(Cl)cc(NS(C)(=O)=O)c2F)n1 [encorafenib]
# Outline: as §1
# [8] = compound: COC(=O)[C@H](CCSC)NC(=O)C1=C(C=C(C=C1)NC[C@H](CS)N)C2=CC=CC=C2
# Outline: as §1
# alisertib = compound: COc1cc(Nc2ncc3c(n2)-c2ccc(Cl)cc2C(c2c(F)cccc2OC)=NC3)ccc1C(=O)O [alisertib]
# Outline: as §1
# [9] = compound: COc1cc2nc(-c3cc(F)ccc3O)nc(N[C@@H]3CNC[C@H]3C(C)(C)O)c2cc1OC
# Outline: as §1
# gefitinib = compound: COc1cc2ncnc(Nc3ccc(F)c(Cl)c3)c2cc1OCCCN1CCOCC1 [gefitinib]
# Outline: as §1
Target,log2 fold change (vemurafenib),log2 fold change [1],log2 fold change (barasertib),log2 fold change [2],log2 fold change (volasertib),log2 fold change [3],log2 fold change [4],log2 fold change [5],log2 fold change (saracatinib),log2 fold change (sotrastaurin),log2 fold change (alvocidib),log2 fold change (Tubastatin A),log2 fold change [6],log2 fold change (defactinib),log2 fold change [7],log2 fold change (encorafenib),log2 fold change [8],log2 fold change (alisertib),log2 fold change [9],log2 fold change (gefitinib)
RWDD4 (UniProt Q6NW29),inactive: -0.028,inactive: 0.021,inactive: -0.018,inactive: 0.004,inactive: 0.014,inactive: 0.06,inactive: -0.084,inactive: 0.071,inactive: -0.021,inactive: 0.017,inactive: -0.021,inactive: 0.016,inactive: 0.005,inactive: 0.029,inactive: 0.02,inactive: -0.004,inactive: 0.039,inactive: -0.001,inactive: -0.027,inactive: 0.022
RPL5 (UniProt P46777),inactive: -0.056,inactive: 0.008,inactive: -0.026,inactive: 0.028,inactive: -0.008,inactive: -0.014,inactive: 0.064,inactive: -0.065,inactive: -0.004,inactive: 0.011,inactive: 0.04,inactive: 0.025,inactive: -0.01,inactive: 0.009,inactive: -0.005,inactive: 0.006,inactive: -0.017,inactive: -0.005,inactive: -0.017,inactive: -0.045
RPS6KC1 (UniProt Q96S38),inactive: -0.037,inactive: 0.033,inactive: 0.014,inactive: 0.051,inactive: -0.022,inactive: -0.032,inactive: -0.014,inactive: -0.078,inactive: 0.011,inactive: 0.026,inactive: 0.016,inactive: -0.027,inactive: 0.001,inactive: 0,inactive: -0.026,inactive: 0.014,inactive: 0.09,inactive: 0.001,inactive: 0,inactive: -0.004
RPL39P5 (UniProt Q59GN2),inactive: -0.023,inactive: 0.018,inactive: -0.098,inactive: 0.073,inactive: 0.035,inactive: 0,inactive: -0.045,inactive: 0.03,inactive: -0.024,inactive: 0.042,inactive: -0.017,inactive: 0.012,inactive: 0.006,inactive: 0,inactive: 0.034,inactive: -0.053,inactive: 0.008,inactive: 0.02,inactive: -0.014,inactive: -0.005
RTN3 (UniProt O95197),inactive: -0.008,inactive: -0.028,inactive: 0.003,inactive: 0.014,inactive: 0.006,inactive: 0.002,inactive: -0.182,inactive: 0.059,inactive: 0.035,inactive: -0.035,inactive: -0.057,inactive: 0.037,inactive: 0.006,inactive: -0.019,inactive: 0.046,inactive: 0.018,inactive: -0.034,inactive: 0.008,inactive: 0.001,inactive: -0.013
RPL37A (UniProt P61513),inactive: 0.003,inactive: -0.002,inactive: -0.013,inactive: -0.01,inactive: -0.015,inactive: -0.044,active: 0.371,inactive: -0.158,inactive: -0.035,inactive: -0.138,inactive: 0.159,inactive: 0.024,inactive: 0.022,inactive: -0.045,inactive: 0.161,inactive: 0.004,inactive: 0.021,inactive: -0.006,inactive: 0.004,inactive: -0.064
RPS18 (UniProt P62269),inactive: 0.006,inactive: 0.022,inactive: -0.007,inactive: -0.014,inactive: 0.018,inactive: 0.009,active: -0.219,inactive: 0.063,inactive: 0.002,inactive: 0,inactive: -0.057,inactive: 0.04,inactive: -0.021,inactive: 0.016,inactive: 0.025,inactive: -0.022,inactive: 0.054,inactive: 0.013,inactive: 0.001,inactive: -0.032
RPS19 (UniProt P39019),inactive: -0.027,inactive: -0.011,inactive: -0.02,inactive: -0.01,inactive: 0.017,inactive: -0.001,inactive: 0.063,inactive: -0.047,inactive: -0.002,inactive: 0.012,inactive: 0.025,inactive: 0.018,inactive: -0.011,inactive: -0.02,inactive: 0.014,inactive: -0.021,inactive: 0.059,inactive: 0.015,inactive: -0.008,inactive: -0.019
RPUSD2 (UniProt Q8IZ73),inactive: 0.011,inactive: 0.021,inactive: 0,inactive: -0.003,inactive: -0.004,inactive: -0.007,inactive: -0.074,inactive: 0.04,inactive: 0.013,inactive: 0.002,inactive: 0.011,inactive: 0.02,inactive: 0.029,inactive: -0.018,inactive: 0.065,inactive: -0.039,inactive: 0.095,inactive: -0.007,inactive: 0.007,inactive: -0.015
RPL36AL (UniProt Q969Q0),inactive: -0.039,inactive: 0.012,inactive: -0.009,inactive: -0.04,inactive: -0.013,inactive: 0.076,inactive: -0.076,inactive: -0.004,inactive: -0.091,inactive: -0.032,inactive: 0.055,inactive: -0.056,inactive: 0.023,inactive: 0.026,active: -0.243,inactive: 0.03,inactive: -0.08,inactive: -0.057,inactive: -0.029,inactive: -0.07
RRBP1 (UniProt Q9P2E9),inactive: -0.004,inactive: 0.021,inactive: -0.002,inactive: 0.054,inactive: -0.007,inactive: 0.01,inactive: 0.093,inactive: -0.078,inactive: 0.05,inactive: -0.018,inactive: 0.021,inactive: 0.007,inactive: -0.009,inactive: 0.002,inactive: -0.001,inactive: 0.018,inactive: -0.038,inactive: 0.003,inactive: 0.01,inactive: -0.002
RRAS (UniProt P10301),inactive: -0.026,inactive: -0.033,inactive: 0.11,inactive: 0.011,inactive: -0.017,inactive: -0.031,inactive: -0.005,inactive: 0.056,inactive: -0.01,inactive: 0.015,inactive: -0.006,inactive: 0.031,inactive: 0.015,inactive: -0.009,inactive: -0.065,inactive: -0.017,inactive: 0.024,inactive: 0.004,inactive: 0.033,inactive: 0.003
RUVBL1 (UniProt Q9Y265),inactive: 0.015,inactive: 0.007,inactive: -0.013,inactive: -0.004,inactive: -0.012,inactive: -0.007,inactive: -0.009,inactive: 0.043,inactive: 0.005,inactive: -0.013,inactive: 0.012,inactive: 0.033,inactive: -0.014,inactive: -0.011,inactive: 0.011,inactive: -0.018,inactive: -0.017,inactive: 0,inactive: 0.002,inactive: -0.01
RPS29 (UniProt P62273),inactive: -0.005,inactive: 0.039,inactive: -0.034,inactive: -0.028,inactive: 0.078,inactive: 0.109,active: 1.01,inactive: -0.262,inactive: -0.007,inactive: -0.133,inactive: 0.23,inactive: -0.052,inactive: -0.029,inactive: -0.027,inactive: 0.081,inactive: -0.062,inactive: 0.151,inactive: -0.278,inactive: 0.032,inactive: -0.138
RPS6KA1 (UniProt Q15418),inactive: -0.037,inactive: -0.004,inactive: -0.006,inactive: 0.037,inactive: 0.029,inactive: 0.019,inactive: -0.004,inactive: 0.116,inactive: 0.101,inactive: 0.103,active: 0.447,inactive: -0.194,active: 0.758,inactive: 0.236,inactive: -0.007,inactive: -0.121,inactive: -0.002,inactive: 0.012,inactive: 0.165,inactive: -0.007
RTN4 (UniProt Q9NQC3),inactive: 0.039,inactive: 0.022,inactive: 0.005,inactive: 0.037,inactive: 0.043,inactive: -0.043,inactive: -0.169,inactive: 0.108,inactive: 0.053,inactive: 0.039,inactive: -0.052,inactive: 0.022,inactive: 0.011,inactive: -0.012,inactive: 0.062,inactive: 0.033,inactive: -0.014,inactive: 0.007,inactive: 0.018,inactive: 0.05

# An excerpt of these results, tab-delimited:
Target	log2 fold change (vemurafenib)	log2 fold change [1]	log2 fold change (barasertib)	log2 fold change [2]	log2 fold change (volasertib)	log2 fold change [3]	log2 fold change [4]	log2 fold change [5]	log2 fold change (saracatinib)	log2 fold change (sotrastaurin)	log2 fold change (alvocidib)	log2 fold change (Tubastatin A)	log2 fold change [6]	log2 fold change (defactinib)	log2 fold change [7]	log2 fold change (encorafenib)	log2 fold change [8]	log2 fold change (alisertib)	log2 fold change [9]	log2 fold change (gefitinib)
RPS29 (UniProt P62273)	inactive: -0.005	inactive: 0.039	inactive: -0.034	inactive: -0.028	inactive: 0.078	inactive: 0.109	active: 1.01	inactive: -0.262	inactive: -0.007	inactive: -0.133	inactive: 0.23	inactive: -0.052	inactive: -0.029	inactive: -0.027	inactive: 0.081	inactive: -0.062	inactive: 0.151	inactive: -0.278	inactive: 0.032	inactive: -0.138
RPS6KA1 (UniProt Q15418)	inactive: -0.037	inactive: -0.004	inactive: -0.006	inactive: 0.037	inactive: 0.029	inactive: 0.019	inactive: -0.004	inactive: 0.116	inactive: 0.101	inactive: 0.103	active: 0.447	inactive: -0.194	active: 0.758	inactive: 0.236	inactive: -0.007	inactive: -0.121	inactive: -0.002	inactive: 0.012	inactive: 0.165	inactive: -0.007
